In US20020090352A1, “Compositions and methods for use in modulating immune system function” (priority 2000, published 2002):
The name of at least one read-out is uncertain. Marks after values point to notes of the source that are not given here.

Tested on: immature LC (Langerhans cells)
Test: Apoptosis of immature LC, flow cytometry of PI stained nuclei (sub 2N particles) / annexin V
Format: cell-based, human
Conditions: Cmpd. VIII 1 μM, TNFα 10 ng/ml
[1] = agent + Cmpd. I 1 μM, Cmpd. II 1 μM, Z-Vad 50 μM, CD40L coculture
[2] = agent + Compound I 100 nM + SR11237 100 nM, Cmpd. II 1 μM, Z-Vad 50 μM, CD40L coculture
[3] = agent + tRA 1 μM, Cmpd. II 1 μM, Z-Vad 50 μM, CD40L coculture
[4] = agent alone (column 0), Cmpd. II 1 μM, Z-Vad 50 μM, CD40L coculture

For `CC1(C)CC=C(c2cnc3ccccc3c2)c2cc(C(=O)Nc3ccc(C(=O)O)cc3)ccc21` [Compound II, 4-[[[5,6-Dihydro-5,5-dimethyl-8-(3-quinolinyl)-2-naphthalenyl]carbonyl]amino]benzoic acid], the “percentage of apoptotic (<2N) particles” value [1] was 9 ± 5^(a) %, the “percentage of apoptotic (<2N) particles” value [2] was 7 ± 3% and the “percentage of apoptotic (<2N) particles” value [3] was 15 ± 8^(a) %. The “percentage of apoptotic (<2N) particles” value [4] was “≦5%”.
In the case of `CC1(C)CC=C(C#Cc2ccccc2)c2cc(/C=C/c3ccc(C(=O)O)cc3)ccc21` [Compound VIII], the “percentage of apoptotic (<2N) particles” value [1] is reported as 5 ± 3%, the “percentage of apoptotic (<2N) particles” value [2] is reported as 4 ± 2% and the “percentage of apoptotic (<2N) particles” value (agent + Rol 1 μM) is reported as 4 ± 1%. The “percentage of apoptotic (<2N) particles” value [3] was 10 ± 6% and the “percentage of apoptotic (<2N) particles” value [4] was “≦5%”.
